Reference: US20150168399A1 (INSERM INSTITUT NATIONAL DE LA SANTE ET DE LA RECHERCHE …, published 2015)
No constants are given. Whether binding was seen depends on the method and setting. Some binding calls cover weakened binding; strength is not graded here.

Protein sequences, listed by entry. Tags and fused reporters are not part of them. Lines headed by an entry give the natural chain unless they say otherwise; changes in a name come on top.
UniProt P20701: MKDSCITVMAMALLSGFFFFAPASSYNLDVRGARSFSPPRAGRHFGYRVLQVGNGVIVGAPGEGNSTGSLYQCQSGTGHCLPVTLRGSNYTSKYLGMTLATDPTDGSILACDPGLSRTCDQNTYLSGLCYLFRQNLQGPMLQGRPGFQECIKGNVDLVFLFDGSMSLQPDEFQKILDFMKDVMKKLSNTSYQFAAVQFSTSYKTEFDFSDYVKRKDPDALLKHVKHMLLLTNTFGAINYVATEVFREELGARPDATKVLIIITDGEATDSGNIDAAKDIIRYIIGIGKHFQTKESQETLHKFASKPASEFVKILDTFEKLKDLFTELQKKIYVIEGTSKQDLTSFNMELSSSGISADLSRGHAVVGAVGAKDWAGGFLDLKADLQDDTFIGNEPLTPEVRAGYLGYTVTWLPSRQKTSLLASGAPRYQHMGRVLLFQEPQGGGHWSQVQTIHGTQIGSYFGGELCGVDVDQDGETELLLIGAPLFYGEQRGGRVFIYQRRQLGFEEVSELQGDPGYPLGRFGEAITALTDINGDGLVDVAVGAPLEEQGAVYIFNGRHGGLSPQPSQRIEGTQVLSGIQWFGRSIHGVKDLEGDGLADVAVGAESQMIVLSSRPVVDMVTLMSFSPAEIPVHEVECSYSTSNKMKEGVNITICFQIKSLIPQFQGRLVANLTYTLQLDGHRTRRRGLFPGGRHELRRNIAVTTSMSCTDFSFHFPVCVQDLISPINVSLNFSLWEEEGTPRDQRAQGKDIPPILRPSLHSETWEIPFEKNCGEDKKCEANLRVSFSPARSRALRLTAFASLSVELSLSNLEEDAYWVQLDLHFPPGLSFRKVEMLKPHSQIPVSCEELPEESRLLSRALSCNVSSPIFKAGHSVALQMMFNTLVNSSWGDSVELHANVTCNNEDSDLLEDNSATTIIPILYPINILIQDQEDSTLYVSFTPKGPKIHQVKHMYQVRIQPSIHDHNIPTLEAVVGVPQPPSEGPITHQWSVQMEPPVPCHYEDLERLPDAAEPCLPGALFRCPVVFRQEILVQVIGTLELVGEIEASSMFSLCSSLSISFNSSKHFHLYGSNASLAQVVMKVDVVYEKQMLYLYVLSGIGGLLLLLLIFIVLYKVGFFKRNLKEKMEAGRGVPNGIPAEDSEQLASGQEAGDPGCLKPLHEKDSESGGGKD
UniProt P05107: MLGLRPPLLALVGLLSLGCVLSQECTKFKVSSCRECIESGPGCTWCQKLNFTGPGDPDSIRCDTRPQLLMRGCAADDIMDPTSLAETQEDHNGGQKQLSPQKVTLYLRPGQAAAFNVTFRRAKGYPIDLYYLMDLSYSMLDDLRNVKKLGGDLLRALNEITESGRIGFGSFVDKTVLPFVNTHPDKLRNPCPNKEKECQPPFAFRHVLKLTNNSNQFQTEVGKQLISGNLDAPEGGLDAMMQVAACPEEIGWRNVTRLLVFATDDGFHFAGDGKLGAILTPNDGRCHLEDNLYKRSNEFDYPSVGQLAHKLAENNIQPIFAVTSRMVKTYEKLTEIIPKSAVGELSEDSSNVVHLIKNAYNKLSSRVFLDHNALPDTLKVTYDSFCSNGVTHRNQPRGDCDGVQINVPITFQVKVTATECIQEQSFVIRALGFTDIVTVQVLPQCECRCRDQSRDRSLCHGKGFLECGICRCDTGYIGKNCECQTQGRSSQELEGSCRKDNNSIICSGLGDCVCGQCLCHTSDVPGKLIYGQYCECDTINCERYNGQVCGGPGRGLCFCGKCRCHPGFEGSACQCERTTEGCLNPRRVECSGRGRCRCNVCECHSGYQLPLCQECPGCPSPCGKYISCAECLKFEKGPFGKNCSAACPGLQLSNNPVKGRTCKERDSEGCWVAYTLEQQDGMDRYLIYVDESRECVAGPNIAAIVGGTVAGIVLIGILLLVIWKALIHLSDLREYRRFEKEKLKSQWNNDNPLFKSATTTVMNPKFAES

Molecular target: human leukocyte integrin LFA-1 (CD11a/CD18) on Jurkat cells or human NK cells (human) (UniProt P20701+P05107)
Test: competition on Jurkat cells, bound endocan in lysate by ELISA

B1: endocan p14 derived from cathepsin G-treated endocan (peptide)
chain: WSNNYAVDCPQHCDSSECKSSPRCKRTVLDDCGCCRVCAAGRGETCYRTVSGMDGMKCGPGLRCQPSNGEDPFGEEFGICKDCPYGTFGMDCRETCNCQSGICDRGTGKCLKFPFF
binding: binds
